From article PMC5992204
These are yes or no findings as the source states them, for the method shown. For some of these results: Binding seen in cells or lysates may run through a third protein. Some entries that bind do so weakly or less than the wild type.

The chains behind the UniProt entries cited, without tags or fusion partners.
UniProt Q61967: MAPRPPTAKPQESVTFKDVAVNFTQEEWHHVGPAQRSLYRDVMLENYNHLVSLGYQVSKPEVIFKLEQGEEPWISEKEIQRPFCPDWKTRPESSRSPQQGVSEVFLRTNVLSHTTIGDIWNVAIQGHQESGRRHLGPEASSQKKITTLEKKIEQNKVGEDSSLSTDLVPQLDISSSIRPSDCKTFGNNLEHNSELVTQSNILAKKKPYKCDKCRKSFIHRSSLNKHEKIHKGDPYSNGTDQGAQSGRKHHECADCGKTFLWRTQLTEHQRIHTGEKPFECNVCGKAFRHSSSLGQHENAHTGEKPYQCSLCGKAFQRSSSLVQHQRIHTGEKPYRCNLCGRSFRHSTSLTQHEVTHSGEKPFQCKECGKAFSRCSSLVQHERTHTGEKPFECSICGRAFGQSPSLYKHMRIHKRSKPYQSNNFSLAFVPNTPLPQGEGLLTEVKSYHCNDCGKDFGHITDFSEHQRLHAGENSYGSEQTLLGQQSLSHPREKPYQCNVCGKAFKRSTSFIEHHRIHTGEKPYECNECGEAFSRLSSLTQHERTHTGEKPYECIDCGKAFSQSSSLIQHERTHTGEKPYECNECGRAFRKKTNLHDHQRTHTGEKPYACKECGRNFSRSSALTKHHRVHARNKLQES
UniProt A2A654: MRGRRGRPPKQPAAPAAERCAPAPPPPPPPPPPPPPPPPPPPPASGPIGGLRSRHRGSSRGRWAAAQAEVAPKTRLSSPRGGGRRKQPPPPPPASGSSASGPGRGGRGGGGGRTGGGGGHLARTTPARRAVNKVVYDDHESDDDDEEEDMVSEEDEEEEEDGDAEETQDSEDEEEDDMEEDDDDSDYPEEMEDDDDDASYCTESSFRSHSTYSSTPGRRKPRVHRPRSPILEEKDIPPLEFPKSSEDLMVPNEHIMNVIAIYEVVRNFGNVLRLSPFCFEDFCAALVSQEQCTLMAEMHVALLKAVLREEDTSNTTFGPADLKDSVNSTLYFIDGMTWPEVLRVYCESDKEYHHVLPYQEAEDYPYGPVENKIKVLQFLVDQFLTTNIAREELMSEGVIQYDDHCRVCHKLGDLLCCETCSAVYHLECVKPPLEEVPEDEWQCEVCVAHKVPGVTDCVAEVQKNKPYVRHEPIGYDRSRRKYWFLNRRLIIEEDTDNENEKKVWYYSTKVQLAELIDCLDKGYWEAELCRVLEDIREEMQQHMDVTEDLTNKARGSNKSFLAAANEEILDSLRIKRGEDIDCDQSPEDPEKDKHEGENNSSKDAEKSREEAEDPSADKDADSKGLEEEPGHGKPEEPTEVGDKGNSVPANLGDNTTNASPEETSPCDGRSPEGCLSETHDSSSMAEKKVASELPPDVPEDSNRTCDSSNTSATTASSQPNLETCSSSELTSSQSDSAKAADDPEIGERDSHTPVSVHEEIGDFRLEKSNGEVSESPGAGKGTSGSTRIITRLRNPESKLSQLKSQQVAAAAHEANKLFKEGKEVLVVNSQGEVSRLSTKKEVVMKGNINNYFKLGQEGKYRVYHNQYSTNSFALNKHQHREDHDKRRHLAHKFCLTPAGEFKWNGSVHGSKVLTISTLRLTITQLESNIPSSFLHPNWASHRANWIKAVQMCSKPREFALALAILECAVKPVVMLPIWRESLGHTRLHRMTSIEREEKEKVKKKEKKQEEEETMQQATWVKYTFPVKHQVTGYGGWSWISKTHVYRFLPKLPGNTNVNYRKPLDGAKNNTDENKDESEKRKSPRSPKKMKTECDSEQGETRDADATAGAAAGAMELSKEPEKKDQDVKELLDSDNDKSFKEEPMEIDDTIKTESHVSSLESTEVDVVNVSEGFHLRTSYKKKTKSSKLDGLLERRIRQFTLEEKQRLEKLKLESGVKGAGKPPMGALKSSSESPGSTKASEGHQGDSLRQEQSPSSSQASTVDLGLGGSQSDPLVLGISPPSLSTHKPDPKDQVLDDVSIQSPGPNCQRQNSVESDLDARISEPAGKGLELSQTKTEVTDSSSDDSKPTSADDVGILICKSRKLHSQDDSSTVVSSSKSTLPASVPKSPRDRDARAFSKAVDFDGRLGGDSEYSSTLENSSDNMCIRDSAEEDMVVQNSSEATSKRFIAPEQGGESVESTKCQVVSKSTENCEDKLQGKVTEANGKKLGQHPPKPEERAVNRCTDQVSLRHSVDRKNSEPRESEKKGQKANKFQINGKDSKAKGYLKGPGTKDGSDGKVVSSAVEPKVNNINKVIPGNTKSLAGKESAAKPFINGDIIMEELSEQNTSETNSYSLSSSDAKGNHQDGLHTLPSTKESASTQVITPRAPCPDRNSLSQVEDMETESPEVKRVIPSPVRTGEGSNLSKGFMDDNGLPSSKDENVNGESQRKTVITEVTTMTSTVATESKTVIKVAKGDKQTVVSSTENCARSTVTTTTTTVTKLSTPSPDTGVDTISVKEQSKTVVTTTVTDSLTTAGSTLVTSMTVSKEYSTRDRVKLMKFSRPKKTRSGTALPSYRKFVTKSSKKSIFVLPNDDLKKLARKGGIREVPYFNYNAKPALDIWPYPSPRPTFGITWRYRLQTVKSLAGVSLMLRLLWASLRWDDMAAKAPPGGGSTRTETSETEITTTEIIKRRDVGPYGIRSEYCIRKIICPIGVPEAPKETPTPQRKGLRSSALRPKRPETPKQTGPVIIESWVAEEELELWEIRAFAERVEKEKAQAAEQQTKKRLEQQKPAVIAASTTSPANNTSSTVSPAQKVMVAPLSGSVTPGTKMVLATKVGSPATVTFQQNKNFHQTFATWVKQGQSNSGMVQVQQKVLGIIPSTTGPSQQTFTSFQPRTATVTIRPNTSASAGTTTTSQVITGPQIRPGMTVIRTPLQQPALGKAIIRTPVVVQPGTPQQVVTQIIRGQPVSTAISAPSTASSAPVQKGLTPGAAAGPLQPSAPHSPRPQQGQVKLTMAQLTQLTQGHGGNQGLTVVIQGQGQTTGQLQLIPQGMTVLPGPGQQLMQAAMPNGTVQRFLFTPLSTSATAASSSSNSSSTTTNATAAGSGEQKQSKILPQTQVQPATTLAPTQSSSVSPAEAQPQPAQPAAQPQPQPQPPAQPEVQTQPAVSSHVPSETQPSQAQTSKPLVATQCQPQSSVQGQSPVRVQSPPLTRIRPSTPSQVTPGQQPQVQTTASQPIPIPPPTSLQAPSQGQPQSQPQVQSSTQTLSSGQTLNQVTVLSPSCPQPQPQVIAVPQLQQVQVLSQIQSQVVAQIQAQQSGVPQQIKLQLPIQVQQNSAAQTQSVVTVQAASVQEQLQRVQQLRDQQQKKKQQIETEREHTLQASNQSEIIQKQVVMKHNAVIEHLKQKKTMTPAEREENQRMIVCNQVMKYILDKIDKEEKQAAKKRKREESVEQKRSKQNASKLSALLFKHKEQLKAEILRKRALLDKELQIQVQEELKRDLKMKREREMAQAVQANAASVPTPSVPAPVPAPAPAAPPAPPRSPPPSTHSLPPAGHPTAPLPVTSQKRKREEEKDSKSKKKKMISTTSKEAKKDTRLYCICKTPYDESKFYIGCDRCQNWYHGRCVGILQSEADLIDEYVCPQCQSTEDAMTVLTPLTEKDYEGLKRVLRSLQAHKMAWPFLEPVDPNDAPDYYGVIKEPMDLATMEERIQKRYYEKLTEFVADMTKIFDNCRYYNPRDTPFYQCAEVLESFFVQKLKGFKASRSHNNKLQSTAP
UniProt Q6PGB8: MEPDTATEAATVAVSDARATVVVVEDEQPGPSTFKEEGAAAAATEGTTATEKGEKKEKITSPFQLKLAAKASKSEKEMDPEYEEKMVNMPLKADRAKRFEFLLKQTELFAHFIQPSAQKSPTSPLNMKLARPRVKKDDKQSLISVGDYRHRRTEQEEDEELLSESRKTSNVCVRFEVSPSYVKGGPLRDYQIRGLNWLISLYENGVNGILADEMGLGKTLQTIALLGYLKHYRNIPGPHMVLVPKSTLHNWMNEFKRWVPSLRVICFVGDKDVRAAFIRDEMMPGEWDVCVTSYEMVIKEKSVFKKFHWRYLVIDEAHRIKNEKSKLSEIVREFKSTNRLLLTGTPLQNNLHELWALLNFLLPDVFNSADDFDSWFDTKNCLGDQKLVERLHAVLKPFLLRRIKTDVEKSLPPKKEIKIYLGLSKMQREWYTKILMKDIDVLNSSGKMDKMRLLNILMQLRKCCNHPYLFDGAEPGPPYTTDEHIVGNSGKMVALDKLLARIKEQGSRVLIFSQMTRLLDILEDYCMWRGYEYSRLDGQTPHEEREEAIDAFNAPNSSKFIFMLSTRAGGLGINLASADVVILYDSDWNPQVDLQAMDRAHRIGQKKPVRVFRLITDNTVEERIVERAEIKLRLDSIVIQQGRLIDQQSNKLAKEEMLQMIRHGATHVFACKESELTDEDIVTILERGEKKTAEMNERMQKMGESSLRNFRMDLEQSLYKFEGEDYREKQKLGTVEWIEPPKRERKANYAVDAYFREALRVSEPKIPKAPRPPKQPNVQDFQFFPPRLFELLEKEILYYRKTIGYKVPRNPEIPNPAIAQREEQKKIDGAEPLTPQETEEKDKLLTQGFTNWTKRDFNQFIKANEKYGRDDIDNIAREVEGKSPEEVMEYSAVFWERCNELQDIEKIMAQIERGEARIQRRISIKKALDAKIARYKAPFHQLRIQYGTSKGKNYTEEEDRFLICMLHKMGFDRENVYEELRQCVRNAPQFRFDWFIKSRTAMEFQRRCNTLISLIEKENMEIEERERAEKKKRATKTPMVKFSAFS

Columns and labels:
GST-tagged Zfp90 (mouse) = GST-tagged Zfp90 (mouse) (UniProt Q61967); assay: pull-down; purified GST-Zfp90 incubated with His-Snf2l, His-Rbbp4 or Flag-Bptf at 4 °C for 4 h, then GST beads and western blot; both purified
Myc-tagged Zfp90 (mouse) = Myc-tagged Zfp90 (mouse) (UniProt Q61967); assay: co-IP; Flag-Bptf, Myc-Zfp90, HA-Snf2l and His-Rbbp4 co-transfected into 293T cells for 36 h; RIPA lysis; antibody overnight at 4 °C, protein A/G agarose, immunoblot
[1] = target: endogenous Zfp90 (mouse (endogenous in bone marrow cells)) (UniProt Q61967); assay: co-IP; mouse BM cell lysates incubated with anti-Zfp90; immunoblot; endogenous proteins

For “Flag tagged Bptf, purified (from UniProt A2A654 1-3036)”, the binding (GST-tagged Zfp90 (mouse)) was “no binding”.
HA-Snf2l (from UniProt Q6PGB8 1-1046) was tested, and the binding (Myc-tagged Zfp90 (mouse)) was “binds”.
In the case of “His-tagged Snf2l (from UniProt Q6PGB8 1-1046)”, the binding (GST-tagged Zfp90 (mouse)) is reported as “binds”.
In the case of “endogenous Snf2l (from UniProt Q6PGB8 1-1046)”, the binding [1] is reported as “binds”.
